Common to all, as to assay: log2 fold change, soluble protein after heating vs DMSO (PISA); higher = thermal stabilisation; K562 lysate, 10 uM; active = over 0.2 and 3.5 SD of the protein, either way, in both replicates (recomputed)
Compound in one assay: CCCS(=O)(=O)Nc1ccc(F)c(C(=O)c2c[nH]c3ncc(-c4ccc(Cl)cc4)cc23)c1F [vemurafenib]
Put shortly: (§1)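 The values are log-two fold changes in thermal stability compared with solvent controls and come from duplicates. They were obtained by TMTpro 16plex LC-MS/MS, with channel sums equalised, on the supernatant after 21,000xg for 90 min. That supernatant came from crude K562 extract at 1 mg/mL protein treated with 10 μM compound for 30 min, heated for 3 min across 48°C-58°C, pooled and brought to 0.5% NP-40 at 4°C.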

By UniProt entry, the sequences of proteins in these tests, tags left out. Where a name states a change or a piece, a line headed by the entry shows the natural chain unless it says otherwise.
UniProt Q6RW13: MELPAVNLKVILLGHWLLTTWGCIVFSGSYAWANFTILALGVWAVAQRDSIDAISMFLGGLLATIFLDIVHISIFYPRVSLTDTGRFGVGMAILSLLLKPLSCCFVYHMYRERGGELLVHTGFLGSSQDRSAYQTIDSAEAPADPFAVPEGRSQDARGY
UniProt Q9UPW5: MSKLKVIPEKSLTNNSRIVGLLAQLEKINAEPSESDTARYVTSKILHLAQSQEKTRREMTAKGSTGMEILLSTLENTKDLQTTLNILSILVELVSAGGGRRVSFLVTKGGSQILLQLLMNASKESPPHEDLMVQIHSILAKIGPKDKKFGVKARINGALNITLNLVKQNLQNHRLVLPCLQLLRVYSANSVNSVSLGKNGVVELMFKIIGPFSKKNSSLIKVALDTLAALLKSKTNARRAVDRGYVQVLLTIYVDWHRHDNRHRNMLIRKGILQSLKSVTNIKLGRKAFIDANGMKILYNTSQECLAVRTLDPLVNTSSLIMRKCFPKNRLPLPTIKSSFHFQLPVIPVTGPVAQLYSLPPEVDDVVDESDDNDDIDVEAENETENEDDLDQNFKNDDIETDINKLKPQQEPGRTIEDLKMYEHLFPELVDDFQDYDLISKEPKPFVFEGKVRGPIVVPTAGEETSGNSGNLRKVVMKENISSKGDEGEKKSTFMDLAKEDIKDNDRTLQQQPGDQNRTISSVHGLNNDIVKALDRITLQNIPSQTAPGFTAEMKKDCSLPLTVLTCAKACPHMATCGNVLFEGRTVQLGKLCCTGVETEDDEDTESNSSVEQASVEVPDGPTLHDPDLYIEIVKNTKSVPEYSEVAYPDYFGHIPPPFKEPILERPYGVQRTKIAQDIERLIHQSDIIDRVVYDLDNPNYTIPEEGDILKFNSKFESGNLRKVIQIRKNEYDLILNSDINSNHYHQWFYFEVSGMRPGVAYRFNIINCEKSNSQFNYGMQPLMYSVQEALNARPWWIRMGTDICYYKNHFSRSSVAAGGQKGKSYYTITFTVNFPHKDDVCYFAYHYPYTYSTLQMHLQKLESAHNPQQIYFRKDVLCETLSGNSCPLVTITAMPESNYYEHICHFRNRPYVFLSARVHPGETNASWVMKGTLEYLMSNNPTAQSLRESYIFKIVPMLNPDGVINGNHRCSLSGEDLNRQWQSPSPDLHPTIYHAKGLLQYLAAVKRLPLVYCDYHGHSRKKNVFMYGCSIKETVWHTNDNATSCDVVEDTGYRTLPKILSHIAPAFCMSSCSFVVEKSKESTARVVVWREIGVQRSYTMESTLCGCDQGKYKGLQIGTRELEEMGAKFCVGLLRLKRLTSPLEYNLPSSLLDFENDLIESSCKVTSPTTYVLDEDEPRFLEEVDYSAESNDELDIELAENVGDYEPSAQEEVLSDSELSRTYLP
UniProt P11117: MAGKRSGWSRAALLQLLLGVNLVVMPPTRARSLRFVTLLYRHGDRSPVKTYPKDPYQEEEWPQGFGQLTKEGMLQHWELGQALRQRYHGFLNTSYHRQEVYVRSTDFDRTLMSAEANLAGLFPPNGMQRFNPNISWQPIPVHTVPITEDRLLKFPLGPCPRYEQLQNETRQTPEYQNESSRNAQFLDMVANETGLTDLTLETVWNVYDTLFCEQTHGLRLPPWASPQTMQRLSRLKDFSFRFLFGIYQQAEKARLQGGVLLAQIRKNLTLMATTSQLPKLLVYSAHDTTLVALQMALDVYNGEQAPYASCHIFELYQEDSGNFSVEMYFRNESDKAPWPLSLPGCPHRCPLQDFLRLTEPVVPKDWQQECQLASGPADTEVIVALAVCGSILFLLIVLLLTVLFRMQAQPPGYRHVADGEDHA
UniProt Q4G176: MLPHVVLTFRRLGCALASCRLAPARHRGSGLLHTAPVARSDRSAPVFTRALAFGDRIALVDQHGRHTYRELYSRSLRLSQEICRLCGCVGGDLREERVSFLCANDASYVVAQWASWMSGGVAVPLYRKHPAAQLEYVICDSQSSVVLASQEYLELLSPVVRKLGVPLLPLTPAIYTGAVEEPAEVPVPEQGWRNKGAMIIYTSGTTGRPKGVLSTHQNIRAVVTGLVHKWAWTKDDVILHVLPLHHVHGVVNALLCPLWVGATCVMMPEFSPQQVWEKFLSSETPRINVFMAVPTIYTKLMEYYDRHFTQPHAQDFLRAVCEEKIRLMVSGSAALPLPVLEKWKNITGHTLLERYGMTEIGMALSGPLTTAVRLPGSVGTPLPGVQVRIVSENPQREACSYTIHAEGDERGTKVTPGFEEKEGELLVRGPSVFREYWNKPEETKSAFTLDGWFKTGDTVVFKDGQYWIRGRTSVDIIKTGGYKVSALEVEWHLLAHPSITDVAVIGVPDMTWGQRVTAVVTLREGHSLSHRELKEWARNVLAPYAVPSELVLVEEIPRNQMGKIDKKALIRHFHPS
UniProt Q9H568: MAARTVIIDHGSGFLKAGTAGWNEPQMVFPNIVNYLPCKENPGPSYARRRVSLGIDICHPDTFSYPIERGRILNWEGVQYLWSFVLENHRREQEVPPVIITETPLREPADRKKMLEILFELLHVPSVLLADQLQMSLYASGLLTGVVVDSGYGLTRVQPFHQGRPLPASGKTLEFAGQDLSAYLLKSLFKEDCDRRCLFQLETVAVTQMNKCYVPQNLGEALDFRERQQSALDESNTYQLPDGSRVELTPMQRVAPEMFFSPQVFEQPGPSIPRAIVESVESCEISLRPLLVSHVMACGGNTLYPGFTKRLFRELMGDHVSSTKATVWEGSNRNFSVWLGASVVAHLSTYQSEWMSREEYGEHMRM
UniProt Q9NX46: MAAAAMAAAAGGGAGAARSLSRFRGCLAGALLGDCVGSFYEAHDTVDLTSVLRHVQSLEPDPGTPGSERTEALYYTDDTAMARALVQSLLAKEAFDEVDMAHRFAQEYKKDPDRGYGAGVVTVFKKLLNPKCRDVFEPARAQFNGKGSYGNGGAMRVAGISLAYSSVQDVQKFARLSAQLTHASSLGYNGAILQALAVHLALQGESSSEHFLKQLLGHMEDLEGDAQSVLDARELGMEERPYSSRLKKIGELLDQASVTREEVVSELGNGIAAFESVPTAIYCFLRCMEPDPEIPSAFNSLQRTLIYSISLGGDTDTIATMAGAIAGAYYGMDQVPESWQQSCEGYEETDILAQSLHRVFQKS
UniProt P30566: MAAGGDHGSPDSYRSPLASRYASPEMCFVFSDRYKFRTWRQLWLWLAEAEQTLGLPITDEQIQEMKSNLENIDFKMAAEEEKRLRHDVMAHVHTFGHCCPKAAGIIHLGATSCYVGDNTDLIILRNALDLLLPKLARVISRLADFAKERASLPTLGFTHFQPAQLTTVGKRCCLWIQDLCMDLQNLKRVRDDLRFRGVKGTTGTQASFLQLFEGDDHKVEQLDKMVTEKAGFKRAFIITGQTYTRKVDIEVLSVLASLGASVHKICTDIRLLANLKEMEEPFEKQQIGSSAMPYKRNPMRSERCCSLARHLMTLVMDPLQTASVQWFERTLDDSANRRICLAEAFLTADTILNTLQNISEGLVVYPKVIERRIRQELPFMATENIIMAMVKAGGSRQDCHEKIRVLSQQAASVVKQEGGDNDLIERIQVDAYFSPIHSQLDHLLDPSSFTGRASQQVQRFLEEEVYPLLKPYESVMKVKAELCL
UniProt O95831, whole entry, looked up: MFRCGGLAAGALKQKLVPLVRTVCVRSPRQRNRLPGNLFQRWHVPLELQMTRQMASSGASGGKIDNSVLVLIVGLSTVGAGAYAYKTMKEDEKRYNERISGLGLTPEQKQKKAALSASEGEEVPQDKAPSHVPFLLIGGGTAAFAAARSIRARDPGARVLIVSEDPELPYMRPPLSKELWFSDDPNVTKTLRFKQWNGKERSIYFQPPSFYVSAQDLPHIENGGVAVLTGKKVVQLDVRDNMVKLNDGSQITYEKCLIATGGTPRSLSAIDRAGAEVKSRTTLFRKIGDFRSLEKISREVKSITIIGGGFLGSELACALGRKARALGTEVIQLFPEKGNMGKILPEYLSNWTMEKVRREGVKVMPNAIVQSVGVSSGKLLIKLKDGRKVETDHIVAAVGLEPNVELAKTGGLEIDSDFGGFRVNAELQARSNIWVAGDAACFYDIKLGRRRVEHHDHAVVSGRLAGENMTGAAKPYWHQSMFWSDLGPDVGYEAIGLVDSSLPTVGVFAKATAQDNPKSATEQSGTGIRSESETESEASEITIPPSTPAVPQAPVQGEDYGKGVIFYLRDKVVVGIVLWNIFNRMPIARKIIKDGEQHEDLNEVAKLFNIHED
UniProt P24666: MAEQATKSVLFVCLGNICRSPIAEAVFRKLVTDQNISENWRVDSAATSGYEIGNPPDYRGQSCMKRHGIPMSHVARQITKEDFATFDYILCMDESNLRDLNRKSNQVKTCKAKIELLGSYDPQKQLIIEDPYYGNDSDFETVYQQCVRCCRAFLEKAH
UniProt Q7Z591: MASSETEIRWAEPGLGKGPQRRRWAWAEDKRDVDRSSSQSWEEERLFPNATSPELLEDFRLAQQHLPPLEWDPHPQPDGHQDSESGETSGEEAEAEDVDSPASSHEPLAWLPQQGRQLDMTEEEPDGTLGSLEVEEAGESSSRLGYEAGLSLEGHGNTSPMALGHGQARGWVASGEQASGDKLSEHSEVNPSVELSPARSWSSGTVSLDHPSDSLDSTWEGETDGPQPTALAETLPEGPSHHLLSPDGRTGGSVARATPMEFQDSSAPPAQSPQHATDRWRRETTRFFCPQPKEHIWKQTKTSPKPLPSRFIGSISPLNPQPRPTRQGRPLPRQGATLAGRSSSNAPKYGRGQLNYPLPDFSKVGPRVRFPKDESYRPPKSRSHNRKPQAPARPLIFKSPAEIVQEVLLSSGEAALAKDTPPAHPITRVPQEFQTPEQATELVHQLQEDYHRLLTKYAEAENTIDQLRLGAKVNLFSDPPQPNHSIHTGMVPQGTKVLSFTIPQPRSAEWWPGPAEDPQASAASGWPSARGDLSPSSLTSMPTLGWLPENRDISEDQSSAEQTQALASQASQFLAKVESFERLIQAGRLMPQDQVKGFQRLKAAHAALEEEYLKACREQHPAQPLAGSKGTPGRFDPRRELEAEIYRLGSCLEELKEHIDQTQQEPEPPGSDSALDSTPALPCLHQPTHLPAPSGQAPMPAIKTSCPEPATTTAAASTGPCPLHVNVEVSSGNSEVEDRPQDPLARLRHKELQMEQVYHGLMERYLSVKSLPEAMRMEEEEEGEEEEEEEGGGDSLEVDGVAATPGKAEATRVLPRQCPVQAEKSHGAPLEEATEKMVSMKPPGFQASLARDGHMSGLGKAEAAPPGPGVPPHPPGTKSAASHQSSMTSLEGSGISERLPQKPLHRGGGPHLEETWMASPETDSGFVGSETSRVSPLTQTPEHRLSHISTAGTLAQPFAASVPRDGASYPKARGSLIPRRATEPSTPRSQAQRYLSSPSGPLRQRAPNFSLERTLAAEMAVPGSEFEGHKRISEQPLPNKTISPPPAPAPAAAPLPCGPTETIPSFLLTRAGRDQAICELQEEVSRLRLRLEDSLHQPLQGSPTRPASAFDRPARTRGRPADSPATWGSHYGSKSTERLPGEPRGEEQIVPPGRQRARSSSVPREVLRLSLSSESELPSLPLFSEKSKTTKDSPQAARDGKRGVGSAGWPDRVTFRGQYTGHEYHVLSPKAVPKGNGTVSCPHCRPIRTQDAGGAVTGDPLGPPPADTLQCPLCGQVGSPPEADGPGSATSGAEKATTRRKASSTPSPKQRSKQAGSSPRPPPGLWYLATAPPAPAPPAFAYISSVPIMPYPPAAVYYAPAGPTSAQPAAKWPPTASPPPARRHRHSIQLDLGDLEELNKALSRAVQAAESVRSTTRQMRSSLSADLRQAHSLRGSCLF
UniProt O14672: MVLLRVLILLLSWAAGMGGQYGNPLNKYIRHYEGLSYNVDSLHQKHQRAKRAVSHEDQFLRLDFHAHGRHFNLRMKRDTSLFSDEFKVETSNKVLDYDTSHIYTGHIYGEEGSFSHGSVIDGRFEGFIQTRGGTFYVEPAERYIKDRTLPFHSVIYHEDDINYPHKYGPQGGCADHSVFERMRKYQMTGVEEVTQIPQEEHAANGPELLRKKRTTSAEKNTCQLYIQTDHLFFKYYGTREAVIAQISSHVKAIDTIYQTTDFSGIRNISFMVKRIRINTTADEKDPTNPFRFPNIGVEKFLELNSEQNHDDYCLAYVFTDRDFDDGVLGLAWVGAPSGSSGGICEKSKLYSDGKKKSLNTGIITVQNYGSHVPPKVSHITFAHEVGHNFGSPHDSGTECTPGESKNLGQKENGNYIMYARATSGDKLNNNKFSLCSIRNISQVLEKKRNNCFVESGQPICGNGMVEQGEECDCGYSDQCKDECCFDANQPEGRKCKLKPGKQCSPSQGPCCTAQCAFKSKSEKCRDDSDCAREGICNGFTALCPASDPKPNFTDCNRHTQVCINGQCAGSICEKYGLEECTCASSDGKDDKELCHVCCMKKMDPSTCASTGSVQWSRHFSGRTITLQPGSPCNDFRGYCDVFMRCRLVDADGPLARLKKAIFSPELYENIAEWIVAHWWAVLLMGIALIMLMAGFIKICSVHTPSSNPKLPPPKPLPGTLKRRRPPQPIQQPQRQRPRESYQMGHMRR

Compound in assay [1]: CCCS(=O)(=O)Nc1ccc(F)c(C(=O)c2c[nH]c3ncc(Cl)cc23)c1F
Put shortly: as §1

Compound in a further assay: CCN(CCCOc1ccc2c(Nc3cc(CC(=O)Nc4cccc(F)c4)[nH]n3)ncnc2c1)CCOP(=O)(O)O [barasertib]
Put shortly: as §1

Compound in assay [2]: CC[C@@H]1C(=O)N(C)c2cnc(Nc3ccc(C(=O)NC4CCN(C)CC4)cc3OC)nc2N1C1CCCC1
Put shortly: as §1

Compound in the next assay: CC[C@@H]1C(=O)N(C)c2cnc(Nc3ccc(C(=O)N[C@H]4CC[C@H](N5CCN(CC6CC6)CC5)CC4)cc3OC)nc2N1C(C)C [volasertib]
A digest of the protocol:
as §1

Compound in assay [3]: CCn1c(C(=O)N(C2CC2)C2CC2)cc2c3c(ncn3C)c(Nc3cc(C)n(C)n3)nc21
Put shortly:
as §1

Compound in assay [4]: CCn1cc(-c2ccnc3[nH]c(-c4cccc(CN(C)C)c4)cc23)c(-c2ccc(NC(=O)N(C)C)cc2)n1
Put shortly: as §1

Compound in assay [5]: CN1CCC(CNc2ccc3ncc(-c4cccc(OC(F)(F)F)c4)n3n2)CC1
A digest of the protocol:
as §1

Compound in another assay: CN1CCN(CCOc2cc(OC3CCOCC3)c3c(Nc4c(Cl)ccc5c4OCO5)ncnc3c2)CC1 [saracatinib]
A digest of the protocol: as §1

Compound in the next assay: CN1CCN(c2nc(C3=C(c4c[nH]c5ccccc45)C(=O)NC3=O)c3ccccc3n2)CC1 [sotrastaurin]
Put shortly:
as §1

Some of the results follow.

With AGTRAP (UniProt Q6RW13), the log2 fold change in the assay with vemurafenib was inactive: 0.038; in [1] it was inactive: 0.039; with barasertib, inactive: 0.086; in [2] it was inactive: -0.001; with volasertib, inactive: 0.007; in [3] it was inactive: -0.049. The log2 fold change in [4] was inactive: -0.205; in assay [5], inactive: 0.092; with saracatinib it was inactive: 0.06; with sotrastaurin, inactive: 0.043.
For AGTPBP1 (UniProt Q9UPW5), the log2 fold change in the assay with vemurafenib is inactive: 0.151; in assay [1], inactive: 0.075; with barasertib, inactive: -0.223; in assay [2], inactive: 0.036; with volasertib, inactive: -0.089; in assay [3], inactive: -0.013. Further, the log2 fold change in assay [4] is inactive: 0.013; in assay [5], active: -0.409; in the assay with saracatinib, inactive: 0.108; in the assay with sotrastaurin, inactive: -0.126.
For ACP2 (UniProt P11117), the log2 fold change with vemurafenib is inactive: -0.022; in assay [1], inactive: 0.013; with barasertib, inactive: 0.038; in [2], inactive: -0.01; with volasertib, inactive: 0.002; in assay [3], inactive: 0.067. The log2 fold change was inactive: 0.008 in assay [4], inactive: 0.065 in assay [5], inactive: -0.07 with saracatinib and inactive: -0.024 in the assay with sotrastaurin.
As to ACSF3 (UniProt Q4G176), the log2 fold change in the assay with vemurafenib is inactive: 0.074; in assay [1], inactive: 0.07; with barasertib, inactive: 0.014; in [2], inactive: 0.025; in the assay with volasertib it was inactive: -0.068; in [3], inactive: 0.022. Moreover, the log2 fold change in [4] was inactive: -0.058; in assay [5], inactive: -0.066; with saracatinib, inactive: -0.014; with sotrastaurin it was inactive: 0.005.
Turning to ACTL8 (UniProt Q9H568), the log2 fold change with vemurafenib was inactive: 0.033; in [1], inactive: 0.004; with barasertib, inactive: -0.052; in [2] it was inactive: 0.101; in the assay with volasertib, inactive: -0.004; in assay [3], inactive: -0.075. The log2 fold change in assay [4] is inactive: -0.034; in assay [5], inactive: 0.031; with saracatinib, inactive: 0.031; with sotrastaurin, inactive: -0.026.
Turning to AKAP9 (UniProt Q99996), the log2 fold change in the assay with vemurafenib is inactive: 0.042; in [1], inactive: 0.008; with barasertib, inactive: 0.029; in assay [2], inactive: 0.015; in the assay with volasertib, inactive: -0.048; in assay [3] it was inactive: 0.02. Besides, the log2 fold change was inactive: -0.022 in [4], inactive: -0.016 in [5], inactive: 0.015 with saracatinib and inactive: -0.03 with sotrastaurin.
As to ADPRHL2 (UniProt Q9NX46), the log2 fold change was inactive: -0.024 with vemurafenib; inactive: 0.002 in assay [1]; inactive: 0.036 with barasertib; inactive: -0.02 in [2]; inactive: -0.076 with volasertib; inactive: -0.007 in assay [3]. Also, the log2 fold change was inactive: -0.064 in assay [4], inactive: -0.079 in assay [5], inactive: 0.006 with saracatinib and inactive: -0.02 in the assay with sotrastaurin.
On to AGRN (UniProt O00468), for which the log2 fold change with vemurafenib is inactive: 0.046; in [1] it was inactive: 0.064; in the assay with barasertib it was inactive: -0.076; in assay [2], inactive: -0.032; with volasertib it was inactive: 0.035; in assay [3], inactive: 0.059. The log2 fold change in assay [4] was inactive: -0.085; in assay [5], inactive: 0.106; with saracatinib, inactive: 0.042; in the assay with sotrastaurin it was inactive: 0.021.
Regarding ADSL (UniProt P30566), the log2 fold change with vemurafenib was inactive: 0.012; in [1] it was inactive: -0.003; in the assay with barasertib it was inactive: -0.042; in [2] it was inactive: 0.051; with volasertib, inactive: 0.043; in [3] it was inactive: 0.004. The log2 fold change in assay [4] was inactive: 0.103; in [5] it was inactive: -0.07; in the assay with saracatinib, inactive: 0.002; in the assay with sotrastaurin, inactive: -0.01.
Consider AFG3L2 (UniProt Q9Y4W6), for which the log2 fold change is inactive: -0.022 with vemurafenib; inactive: 0.012 in assay [1]; inactive: 0.069 with barasertib; inactive: -0.03 in assay [2]; inactive: -0.011 with volasertib; inactive: 0.022 in assay [3]. Besides, the log2 fold change in assay [4] was inactive: 0.063; in [5], inactive: -0.049; with saracatinib it was inactive: 0.026; with sotrastaurin it was inactive: -0.013.
Take AIFM1 (UniProt O95831): the log2 fold change with vemurafenib is inactive: 0.015; in assay [1], inactive: -0.002; with barasertib it was inactive: -0.036; in assay [2], inactive: -0.006; with volasertib it was inactive: -0.002; in assay [3] it was inactive: -0.026. The log2 fold change in assay [4] was inactive: 0.119; in assay [5], inactive: -0.008; with saracatinib, inactive: -0.029; with sotrastaurin it was inactive: -0.001.
Consider ACP1 isoform 2 (UniProt P24666), for which the log2 fold change with vemurafenib is inactive: 0.056; in [1] it was inactive: -0.005; in the assay with barasertib, inactive: 0.03; in [2], inactive: 0.046; in the assay with volasertib, inactive: -0.033; in assay [3], inactive: -0.023. Further, the log2 fold change was inactive: 0 in [4], inactive: 0.014 in [5], inactive: 0.004 in the assay with saracatinib and inactive: -0.024 with sotrastaurin.
AKNA (UniProt Q7Z591): the log2 fold change in the assay with vemurafenib was inactive: -0.176; in assay [1], inactive: -0.122; in the assay with barasertib, inactive: 0.07; in assay [2], inactive: -0.134; with volasertib, inactive: -0.149; in assay [3], inactive: 0.01. For the same target, the log2 fold change in assay [4] is inactive: 0.035; in [5] it was inactive: -0.312; with saracatinib, inactive: -0.004; in the assay with sotrastaurin it was inactive: -0.037.
Consider ADAM10 (UniProt O14672), for which the log2 fold change with vemurafenib is inactive: 0.032; in [1], inactive: 0.011; with barasertib it was inactive: -0.011; in assay [2], inactive: 0.033; in the assay with volasertib it was inactive: 0; in [3], inactive: 0.006. For the same target, the log2 fold change in assay [4] was inactive: -0.228; in assay [5] it was inactive: 0.066; with saracatinib it was inactive: 0; with sotrastaurin, inactive: 0.045.
Take AKAP12 (UniProt Q02952): the log2 fold change in the assay with vemurafenib is inactive: 0.011; in [1] it was inactive: 0.007; with barasertib, inactive: -0.057; in [2] it was inactive: 0.003; with volasertib, inactive: -0.016; in assay [3] it was inactive: 0.056. Moreover, the log2 fold change is inactive: 0.15 in assay [4], inactive: 0.04 in [5], inactive: 0.192 with saracatinib and inactive: 0.056 with sotrastaurin.

(Values after the supplement of paper PMC10849652.)
